In all, about 33,000 sequences were measured (“E-score (-0.5 to 0.5)”: median about -0.015, highest 2% from about 0.3 on). The list shows a part of the results.

This experiment addresses T1, Abf1 (UniProt P14164).
T1 sequence: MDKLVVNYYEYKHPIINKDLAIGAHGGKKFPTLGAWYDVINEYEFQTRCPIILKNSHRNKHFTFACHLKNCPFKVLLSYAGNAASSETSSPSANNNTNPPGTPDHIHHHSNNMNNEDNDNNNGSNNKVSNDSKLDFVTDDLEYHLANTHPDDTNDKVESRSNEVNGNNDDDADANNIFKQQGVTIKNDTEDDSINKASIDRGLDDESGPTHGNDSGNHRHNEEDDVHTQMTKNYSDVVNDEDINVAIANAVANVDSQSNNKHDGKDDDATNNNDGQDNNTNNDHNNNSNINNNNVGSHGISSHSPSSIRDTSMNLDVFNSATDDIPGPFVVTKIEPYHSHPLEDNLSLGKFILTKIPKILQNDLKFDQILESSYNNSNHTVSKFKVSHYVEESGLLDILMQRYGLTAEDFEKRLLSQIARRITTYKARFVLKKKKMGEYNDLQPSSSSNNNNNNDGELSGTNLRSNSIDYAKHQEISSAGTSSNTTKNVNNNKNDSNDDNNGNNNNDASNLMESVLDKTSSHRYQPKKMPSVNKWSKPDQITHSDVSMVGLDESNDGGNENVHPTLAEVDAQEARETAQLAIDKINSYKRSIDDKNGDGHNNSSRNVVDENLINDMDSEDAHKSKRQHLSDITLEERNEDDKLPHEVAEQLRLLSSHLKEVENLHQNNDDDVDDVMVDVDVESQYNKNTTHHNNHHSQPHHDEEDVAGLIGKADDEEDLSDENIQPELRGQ
Briefly: PBM E-score (8-mer binding enrichment) (E-score (-0.5 to 0.5)); higher = stronger / more preferred TF binding. Particulars: protein concentration: 200 nM; construct: GST-full length. The gist of the method:
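Using PURExpress in vitro transcription/translation, GST-tagged yeast transcription factors were made in full-length or DNA-binding-domain form. These were applied at about 100-200 nM to double-stranded universal all-10-mer Agilent arrays, and bound protein was detected with fluorescent anti-GST. Scans were normalised with masliner before the Universal PBM Analysis Suite assigned E-scores to ungapped eight-base words pooled with their reverse complements.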
Take TGACAACA: the “PBM E-score” value came out at 0.273. With CACGCGAG, the “PBM E-score” value is 0.024. To GAGCAGAC belongs -0.14. Take AGAGGTGG: the “PBM E-score” value was -0.0683. As to AGTAAAGG, the “PBM E-score” value was determined as 0.0977. To CTTGGGGA belongs 0.00223; to ACTCGCAT, -0.0243; to CACATGCC, -0.142. To CCGTAAGG belongs 0.0402; to GTTAGATA, 0.0659; to ATGAACGA, 0.233. For the sequence TGACCAAA, the “PBM E-score” value is 0.138. To AATAATCT belongs -0.00552; to ATTAGGCG, 0.105; to GGAACCTA, -0.112. To CGCCTACG belongs 0.0973; to ACTGAATG, -0.0197; to CTTGCCAA, 0.108.

For the sequence TTCAGGAA, the “PBM E-score” value was -0.105. Take AAAGACCA: the “PBM E-score” value is -0.228.

With ATGACATC, the “PBM E-score” value is 0.308. To CCCTAGGG belongs -0.227; to CACCTCAA, 0.039; to GAACCTCC, -0.0613.

For GGTGACGA, the “PBM E-score” value is 0.276. As for CAGCTCCC, the “PBM E-score” value is -0.286. To AATATCTA belongs 0.0256; to ATTAAACA, 0.161; to ATAACTTA, 0.163. For AGTGGAAT, the “PBM E-score” value was -0.0881. For the sequence CGACTGAG, the “PBM E-score” value was -0.101. To CATTAACA belongs 0.106; to GAGTTGTA, 0.0502; to CCCCGCCG, -0.279.

Consider CGTTCCTC, for which the “PBM E-score” value is -0.0477. To AACCGAGG belongs -0.216; to CACTGTTA, -0.0977.

As for CCTAACGC, the “PBM E-score” value is -0.043. To CATCAGTA belongs 0.00401; to AGCTGAAT, -0.0697.

For the sequence AACCGCAG, the “PBM E-score” value was -0.0768. To CATCATGA belongs 0.298; to ACGACTCC, 0.0845; to ACCGCTGC, -0.252. For the sequence CATTGTAA, the “PBM E-score” value was -0.0294. ACAGCTGC: the “PBM E-score” value is -0.201. In the case of ATGATTGA, the “PBM E-score” value is 0.346. To ATAACCTG belongs -0.178; to ACCACACA, -0.0452; to CTGACCTA, -0.0174. To GGAGGGCC belongs -0.0909; to CTCGCTTA, 0.0547; to ATCTGCCA, -0.101.

As to ATATGGTC, the “PBM E-score” value came out at 0.15. To CCACGCAC belongs -0.0257.

For AAATTGTT, the “PBM E-score” value came out at 0.138. As for CCTATCGC, the “PBM E-score” value was -0.0336. To ATACCTCG belongs 0.0867; to AAGCGGGC, -0.381; to AATCGCGA, 0.176. To CCGATCCG belongs -0.0938; to TATGTCAA, 0.159.

Take AGACGGCA: the “PBM E-score” value was found to be 0.156. To ATGGCGCC belongs -0.174; to CCATAAGC, -0.0657; to AAGTCGCA, 0.135. Take AAGAGAGC: the “PBM E-score” value was -0.139. To CCGGTAAA belongs -0.2. In the case of GGCAAGGA, the “PBM E-score” value is -0.141. As for CAGCACTG, the “PBM E-score” value is -0.256. As for CACTGTAG, the “PBM E-score” value was found to be 0.108. To ATAGATAA belongs 0.0196. To ACTCGACC belongs -0.157; to ACGAGCCA, 0.148; to GATTGACC, -0.049. Consider AGCCATCG, for which the “PBM E-score” value was -0.147. To GACTGATC belongs 0.0853; to AAGCCCGC, -0.249; to GCCACAAC, -0.116. To CCACAGGC belongs -0.201; to AGAGCGCC, -0.104; to AGTACCGA, -0.144.

For AGACATTC, the “PBM E-score” value amounted to 0.0909. For the sequence CCAAAGAA, the “PBM E-score” value is 0.0575.

For CAGACCAG, the “PBM E-score” value is -0.155. CCTGTGCA: the “PBM E-score” value was -0.0839.

On to AGTCTAAT, for which the “PBM E-score” value was -0.162. As to GATTGACA, the “PBM E-score” value worked out at 0.171. With AGGGTCTG, the “PBM E-score” value was -0.303. To ATCAGCAT belongs 0.133. For the sequence ATGAACCA, the “PBM E-score” value is 0.0351. To CGACCTCA belongs 0.00561; to CCCTACGA, 0.041. On to AAAAGTTT, for which the “PBM E-score” value was -0.15. In the case of AAGTGGGC, the “PBM E-score” value was -0.0684.

Consider ACGAGGAG, for which the “PBM E-score” value came out at 0.184. To CATGTGTC belongs 0.0875; to AATATACC, 0.109; to ACCATACC, -0.287. To CCCAGAGA belongs -0.17; to GCATAAGC, -0.0794; to CTGCCCAC, -0.039.

On to AGACTCGG, for which the “PBM E-score” value was -0.286. To ACTCCTAC belongs 0.0623; to ATACCAAG, -0.0413. To ACGTCGAC belongs 0.146; to ACCACTCT, -0.142. In the case of CAACATTA, the “PBM E-score” value was -0.00433. To CGAGCCCG belongs -0.174.

The record behind these values is the supplement of paper PMC3334620.
